# From the supplement of paper PMC3334620
# In all, about 33,000 sequences were measured (“E-score (-0.5 to 0.5)”: median about -0.016, highest 2% from about 0.3 on). This is one part of the list.
# Target: T1, Yer184c (UniProt P39961)
# T1 sequence: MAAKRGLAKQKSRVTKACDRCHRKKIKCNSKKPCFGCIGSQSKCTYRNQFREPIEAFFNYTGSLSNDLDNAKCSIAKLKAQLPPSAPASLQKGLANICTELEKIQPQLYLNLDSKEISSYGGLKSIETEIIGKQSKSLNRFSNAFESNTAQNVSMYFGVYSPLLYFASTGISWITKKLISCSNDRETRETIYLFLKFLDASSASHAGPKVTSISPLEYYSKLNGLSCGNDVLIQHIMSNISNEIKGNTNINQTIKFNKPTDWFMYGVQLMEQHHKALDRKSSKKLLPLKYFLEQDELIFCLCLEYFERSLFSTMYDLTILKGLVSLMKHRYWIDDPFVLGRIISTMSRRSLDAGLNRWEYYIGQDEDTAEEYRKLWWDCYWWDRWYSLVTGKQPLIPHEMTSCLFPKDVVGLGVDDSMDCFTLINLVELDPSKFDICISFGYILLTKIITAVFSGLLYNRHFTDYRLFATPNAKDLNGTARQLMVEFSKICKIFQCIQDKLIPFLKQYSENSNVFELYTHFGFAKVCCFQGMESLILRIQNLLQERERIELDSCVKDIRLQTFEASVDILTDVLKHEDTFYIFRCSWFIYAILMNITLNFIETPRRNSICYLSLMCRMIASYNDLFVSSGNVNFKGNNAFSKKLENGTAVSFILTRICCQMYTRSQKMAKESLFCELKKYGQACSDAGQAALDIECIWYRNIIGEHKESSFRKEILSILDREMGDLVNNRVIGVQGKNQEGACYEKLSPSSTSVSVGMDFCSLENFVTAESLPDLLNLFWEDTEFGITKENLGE
# Test: PBM E-score (8-mer binding enrichment) (E-score (-0.5 to 0.5)); higher = stronger / more preferred TF binding
# Conditions: protein concentration: 100 nM; construct: GST-full length
# How it was run: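 Universal all-10-mer Agilent arrays, double-stranded by primer extension on fresh or once-stripped slides, were probed with about 100-200 nM GST-tagged yeast transcription factors made by PURExpress. Fluorescent anti-GST detected bound protein, and masliner normalised the scans. E-scores from the Universal PBM Analysis Suite were given to each ungapped eight-base word pooled with its reverse complement.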
row,Sequence,PBM E-score
1,CCGGCCAC,0.24
2,AGGTATGC,-0.0367
3,CATCTACC,0.0432
4,ATAGTGCG,0.0164
5,AACACGGA,0.298
6,CGGACTTA,0.193
7,GACAGGTC,-0.235
8,GCAGGCGA,-0.119
9,TAAATAAA,0.161
10,CAGCGTTA,-0.141
11,CTATTTGA,0.124
12,CCCACCCA,-0.319
13,TAATGTCA,-0.064
14,GAAGATAC,0.162
15,AACTAGGA,-0.0501
16,AACTATGG,-0.162
17,GCTAGGCC,-0.0163
18,AGTATTAT,0.0439
19,AGAACTTC,-0.072
20,CAAAAATG,0.00191
21,AAAGGTTG,-0.194
22,CCTGACGC,-0.283
23,AGGACAGG,-0.113
24,AAATACGT,-0.0619
25,CTCTGCGA,-0.166

# At a glance, some entries already given:
row,Sequence,PBM E-score
10,CAGCGTTA,-0.141
11,CTATTTGA,0.124
12,CCCACCCA,-0.319
13,TAATGTCA,-0.064
14,GAAGATAC,0.162
15,AACTAGGA,-0.0501

# Further results follow:

row,Sequence,PBM E-score
1,TATGTCGA,0.105
2,CTCGTTAC,-0.144
3,AAGGCTCC,-0.285
4,CCGACCCC,-0.21
5,AACGAACG,0.111
6,CTTGTCTA,0.0607
7,CTATCACC,-0.172
8,AGATCCCA,-0.181
9,AGACGCTC,-0.228
10,CTTCTTGA,-0.0452
11,CTTTACAA,-0.0597
12,ACCAGAGA,-0.142
13,GGCGAATA,-0.0587
14,GCACTAAA,0.224
15,GTTAACGA,0.0155
16,ACTGGACG,-0.162
17,CAGCTGGA,-0.0431
18,AGATTGTC,0.0109
19,GGAGTCAA,-0.0229
20,GCAACACA,-0.0165
21,AACCATGT,-0.0392
22,ACCGAATG,0.178
23,AAACGCCG,0.334
24,AGTCTAAC,-0.0707
25,ACCTCTGA,-0.0461

row,Sequence,PBM E-score
1,GAGAGGGC,-0.293
2,CAACGGGG,-0.179
3,CCGTCAAG,0.0264
4,AACAATAA,0.255
5,ATCACCAT,0.034
6,CATTTAAC,0.133
7,CTCGCCAC,-0.188
8,CCCAAGGA,-0.0911
9,GTATCGAC,-0.00889
10,ATTCACCG,0.246
11,AAAGGCCC,-0.131
12,AGCATTCA,-0.0157
13,GATGCATC,0.285
14,ATCCATAA,0.168
15,AGTGATTC,0.0038
16,ACGGTAAT,0.073
17,ACATCAGA,0.0273
18,AACCTGGC,-0.0868
19,CCCCTGGC,-0.309
20,CGAGATGA,0.0904
21,CAGTGAAG,-0.0888
22,ATCTTGGG,-0.176
23,GTAGAGTA,0.0481
24,GGTCACAA,0.0767
25,GACTAATC,0.0313

row,Sequence,PBM E-score
1,GTCCCAAC,-0.18
2,ACTAATTC,0.172
3,CAAGGTGC,-0.142
4,ACCATCAC,-0.0965
5,GCGAACTA,0.0917
6,AGCATTGC,-0.0349
7,CGGCAAAG,0.201
8,GGGTACAA,-0.127
9,ACGTTTCA,0.0546
10,CGACCGGC,0.27
11,AGACGTGC,0.0927
12,GCGTAAGA,0.0272
13,AGCCTGTA,-0.0568
14,AACGGAGG,0.0793
15,AAAATCCA,-0.0451
16,GACTACCC,-0.266
17,AATAGGCG,0.135
18,AACTCTGT,0.0128
19,CGCCTACC,-0.189
20,GTCCTACA,0.127
21,ACTTGATC,0.067
22,GGACGTTA,-0.0625
23,AGCATAAG,0.0447
24,AATCTGTA,0.116
25,ATCACATC,0.0225

row,Sequence,PBM E-score
1,AAACATCT,0.122
2,GGTATCCA,0.125
3,AACTAGCA,0.0764
4,GTTGGTCA,-0.00964
5,ACATCCTG,0.0484
6,AGTAATCG,0.00859
7,AGACTGCT,-0.248
8,AGATCTGC,0.135
9,GCGTTCCC,-0.0546
10,ATCACCAA,-0.0977
11,CCCGGACG,-0.0945
12,AGACCGCC,-0.101
13,CGCATTTA,0.123
14,CCCAGAGG,-0.375
15,ATCCCACC,-0.0176
16,AGGCGCAA,0.0513
17,TTCCGCAA,0.259
18,ATCCGAAG,0.302
19,ATATCCCG,0.223
20,CTCAGATA,0.143
21,AACTTCGA,0.0739
22,AATAACAT,0.109
23,AGAACGTG,0.0203
24,AAGTATGT,0.027
25,CTTATTGC,-0.216

row,Sequence,PBM E-score
1,CAGGCGCA,-0.0642
2,AGCAGTGC,-0.185
3,TTGCGCAA,-0.0396
4,TAGGCGGA,-0.00816
5,CGGTGGGC,-0.0538
6,CAACCTTG,-0.103
7,AATTTACT,0.161
8,TAGGGTCA,-0.2
9,ACATCGAC,-0.0912
10,CCACTATC,-0.109
11,GTTTGCTA,0.0684
12,GTAACATA,0.0708
13,ATCATTGA,0.182
14,CTTCCGCC,0.024
15,ATGAGAGC,-0.0686
16,GTATGACA,-0.0378
17,GAACTTAA,0.133
18,AGGCACGC,-0.218
19,TTAACGAA,0.262
20,CATAGTAC,-0.0277
21,GAACCCTC,-0.248
22,GGTTCCGA,0.278
23,CTTGTAGA,-0.233
24,CGAACTAG,0.183
25,CAGTTTCA,-0.151

row,Sequence,PBM E-score
1,CGTCTATC,-0.118
2,GTACCCAC,-0.122
3,GCAGTGAA,0.0843
4,AACGGTGT,-0.119
5,CAGTACTC,-0.232
6,CACACATA,0.0575
7,CTGTGCAA,-0.0616
8,CCGTGACC,0.0268
9,CCTGAGCG,-0.161
10,TACGTCAA,-0.258
11,ACCATTAA,0.206
12,ATTCCTTA,0.0278
13,AACCCAGA,-0.0353
14,AACTAATG,0.148
15,AATTTGCC,0.0902
16,CTTCGACC,-0.0596
17,ATACCAAT,-0.0356
18,GATTAGCC,0.0506
19,CAATGCCG,0.22
20,AAATACGG,0.116
21,TATTCTCA,0.154
22,AGGCTCTC,-0.0895
